Some of the results follow. Further columns of the screen follow, without active or inactive calls. For some assays here: The list favours compounds with an active or inconclusive main result. For some assays here: Potencies come from curve fits of mixed quality, noted in brackets.
Legend:
[1] = S16 Schwann cell PMP22 intronic element beta-lactamase assay (AID 624044); conditions: S16 rat Schwann cells, PMP22 element beta-lactamase FRET, 24 h
How it was run: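 Rat S16 Schwann cells with beta-Lac driven by a PMP22 intronic element, compound-treated 24 h at 37 °C. LiveBLAzer FRET B/G read: 460 nm normalized to potassium clavulanate vs DMSO; 535 nm FRET as viability; concentration-effect curves classified.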

[2] = NCATS anti-infectives library activity on the primary C. elegans qHTS viability assay (AID 1745855); conditions: C. elegans worm area imaging
How it was run: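 Viability read-out is GFP fluorescence of PE254-GFP-FLuc C. elegans, measured by laser cytometry (488 nm) at day 0, 3 and 7. Ten L1 worms per well were incubated 7 days at 21 °C with compounds and bacterial capsules in S medium.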

[3] = qHTS for identification of novel therapeutic agents for treatment of microphthalmiaassociated transcription factor (MiT) renal cell carcinoma (RCC) (AID 1963991); conditions: CellTiter-Glo, 48 h; for z-score: stronger effect = lower value;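 for z-score: curves scaled with 100% = DMSO viability and 0% = empty wells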
How it was run: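 UOK109/UOK124/UOK145 (TFE3 fusions, three partners); 500 cells/well; MIPE v4.0, 1912 cpds, 11 conc.; 48 h, 37 C; CellTiter-Glo, 15 min RT; lum. Norm.: DMSO 100%, empty 0%.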

[4] = Nrf2 qHTS screen for inhibitors: Validation (AID 493153); conditions: A549 ARE-Fluc reporter, 18-24 h; AC50: CellTiter-Fluor fluorescence read, measured here: cytotoxicity CellTiter-Fluor AC50; viability change: measured here: cytotoxicity max response
How it was run: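 A549 cells carrying ARE-firefly luciferase reporter, 5000 cells/well in 5% FBS OPTI-MEM, treated with compound over a concentration series for 18-24 h at 37 C. Luciferase luminescence gave Nrf2 activity; CellTiter-Fluor fluorescence gave viability.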

[5] = qHTS drug screen for cell cycle checkpoint inhibitors in PARPi-resistant BRCA-mutant ovarian cancer cell lines. (AID 1963452); conditions: PEO1/OlaR viability, CellTiter-Glo luminescence, 96 h
How it was run: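 PEO1, PEO4 and PEO1/OlaR ovarian cancer cells, 600 per well, exposed 96 h at 37C to a dilution series. Viability read by CellTiter-Glo luminescence, normalized to DMSO and empty wells; activity summarized as Z-AUC.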

[6] = qHTS assay for small molecule agonists of retinoid X receptor alpha signaling (AID 588544); conditions: HEK293T RXRa-UAS-bla, beta-lactamase reporter, 18 h; 530 nm emission
[7] = day 7, measured here: worm area, day 3
[8] = day 7, measured here: worm number, day 3
[9] = TFE3-RCC UOK109 viability, measured here: UOK109 Z-AUC
[10] = TFE3-RCC viability, measured here: UOK124 Z-AUC
[11] = TFE3-RCC viability, measured here: UOK145 Z-AUC
[12] = TFE3-RCC viability, measured here: UOK145 cell viability
[13] = measured here: PEO1 parental viability

CC(C)=CCC/C(C)=C/C=C/C(C)=C/C=C/C(C)=C/C=C/C=C(C)/C=C/C=C(C)/C=C/C=C(\C)CCC=C(C)C
AC50 ([1]; measured here: 530 nm viability channel): 0.00158 µM [falling, full curve, poor fit]
AC50 [2, 7]: 20.5 µM [falling, single point]

C=CCc1ccc(O)c(-c2ccc(O)c(CC=C)c2)c1
AC50 [2, 8]: 18.3 µM [falling, partial curve, poor fit]
z-score [3, 9]: -0.601
z-score [3, 10]: 0.262
AC50 ([3]; TFE3-RCC viability, measured here: UOK124 cell viability): 33.2 µM [falling, single point]
z-score [3, 11]: 0.582
AC50 [3, 12]: 33.2 µM [falling, single point]

N=c1ccn2c(n1)O[C@H]1[C@H](O)[C@@H](CO)O[C@H]12
viability change [4]: -5.69%
AC50 ([1]; measured here: 460 nm blue channel): 7.07 µM [falling, partial curve]
AC50 [2, 7]: 20.5 µM [falling, single point]
AC50 [5, 13]: 0.195 µM [falling, full curve]
AC50 ([5]; measured here: PEO4 viability): 0.436 µM [falling, partial curve]

CCN(CCO)CCCC(C)Nc1ccnc2cc(Cl)ccc12 (stereo not drawn)
AC50 [2, 7]: 0.183 µM [falling, single point]
z-score [3, 9]: -0.337
z-score [3, 10]: 0.615
z-score [3, 11]: -0.0617
AC50 [3, 12]: 23.5 µM [falling, partial curve, poor fit]

CN1CCN(c2nc(C3=C(c4c[nH]c5ccccc45)C(=O)NC3=O)c3ccccc3n2)CC1
AC50 ([5]; measured here: PEO4 viability): 27.5 µM [falling, single point]

COc1ccc(Oc2cc(NCCC(F)(F)F)c3ncc(-c4ccc(C(=O)NC5CC5)c(C)c4)n3n2)c(F)c1F
AC50 ([5]; measured here: PEO4 viability): 0.0039 µM [falling, full curve, poor fit]

C=C1C(=O)OC(CCCCCCCC)C1C(=O)O (stereo not drawn)
AC50 [5, 13]: 27.5 µM [falling, partial curve, poor fit]

CCN(CCCOc1ccc2c(Nc3cc(CC(=O)Nc4cccc(F)c4)[nH]n3)ncnc2c1)CCOP(=O)(O)O
AC50 ([5]; measured here: PEO4 viability): 0.245 µM [falling, full curve, poor fit]

C[C@]1(c2nc3c(C(N)=O)cccc3[nH]2)CCCN1
AC50 ([2]; day 7, measured here: worm number): 20.5 µM [rising, single point]
z-score [3, 9]: -0.286
z-score [3, 10]: 0.505
z-score [3, 11]: -0.0624

CC(C)(Oc1ccc(C2CC2(Cl)Cl)cc1)C(=O)O (stereo not drawn)
max response [6]: -16.6%
AC50 [2, 8]: 10.3 µM [falling, partial curve, poor fit]
z-score [3, 9]: -0.111
z-score [3, 10]: 0.933
z-score [3, 11]: 0.656
AC50 [3, 12]: 48.1 µM [falling, partial curve, poor fit]

CC(C)[C@H]1C(=O)N[C@@H](CCCN=C(N)N)C(=O)NCC(=O)N[C@@H](CC(=O)O)C(=O)N[C@H](Cc2ccccc2)C(=O)N1C
AC50 [5, 13]: 0.338 µM [falling, partial curve]

C[C@@H]1CN(CC(=O)N2CC(C)(C)c3ncc(Cc4ccc(F)cc4)cc32)[C@@H](CN2CCOC[C@H]2C)CN1
AC50 ([5]; measured here: PEO4 viability): 2.45 µM [falling, partial curve, poor fit]

CC(C)Oc1ccc2c(=O)c(-c3ccccc3)coc2c1
AC50 [5, 13]: 6.16 µM [falling, partial curve, poor fit]

CN[C@@H](C)C(=O)N[C@H](C(=O)N1CCC[C@H]1c1nc(C(=O)c2ccc(F)cc2)cs1)C1CCCCC1
AC50 ([5]; measured here: PEO4 viability): 0.871 µM [falling, full curve, poor fit]

N#Cc1ccnc(N2C(=O)CC[C@H]2C(=O)N(c2cncc(F)c2)C(C(=O)NC2CC(F)(F)C2)c2ccccc2Cl)c1 (stereo partly drawn)
AC50 ([5]; measured here: PEO4 viability): 0.0069 µM [rising, full curve, poor fit]

Cc1nn(C)c(COc2ccc(N3CCN(S(=O)(=O)N(C)C)CC3)cc2)c1-c1cccc2c(CCCOc3cccc4ccccc34)c(C(=O)O)n(CCN3CCOCC3)c12
AC50 ([5]; measured here: PEO4 viability): 3.47 µM [falling, full curve, poor fit]

— PubChem BioAssay (NCATS)
